Test results published in the supplement of paper PMC10849652.
Some of the results follow.

Protein sequences, listed by entry. Tags and fused reporters are not part of them. Lines headed by an entry give the natural chain unless they say otherwise; changes in a name come on top.
UniProt Q9BW85: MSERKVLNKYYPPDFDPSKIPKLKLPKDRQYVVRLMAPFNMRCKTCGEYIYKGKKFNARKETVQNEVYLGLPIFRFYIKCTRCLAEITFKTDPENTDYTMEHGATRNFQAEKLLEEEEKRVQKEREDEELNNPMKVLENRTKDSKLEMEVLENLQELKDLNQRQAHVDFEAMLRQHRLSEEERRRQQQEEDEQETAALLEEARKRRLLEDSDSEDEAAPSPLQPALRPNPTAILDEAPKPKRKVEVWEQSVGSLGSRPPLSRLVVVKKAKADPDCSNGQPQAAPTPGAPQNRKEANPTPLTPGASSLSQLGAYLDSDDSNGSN
UniProt O76080: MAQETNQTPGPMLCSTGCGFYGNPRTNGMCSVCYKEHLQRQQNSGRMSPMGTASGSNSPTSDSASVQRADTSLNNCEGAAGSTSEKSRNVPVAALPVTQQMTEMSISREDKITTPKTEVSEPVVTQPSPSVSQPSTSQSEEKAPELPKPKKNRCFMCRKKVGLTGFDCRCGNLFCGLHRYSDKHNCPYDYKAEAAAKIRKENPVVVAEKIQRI
UniProt P17028: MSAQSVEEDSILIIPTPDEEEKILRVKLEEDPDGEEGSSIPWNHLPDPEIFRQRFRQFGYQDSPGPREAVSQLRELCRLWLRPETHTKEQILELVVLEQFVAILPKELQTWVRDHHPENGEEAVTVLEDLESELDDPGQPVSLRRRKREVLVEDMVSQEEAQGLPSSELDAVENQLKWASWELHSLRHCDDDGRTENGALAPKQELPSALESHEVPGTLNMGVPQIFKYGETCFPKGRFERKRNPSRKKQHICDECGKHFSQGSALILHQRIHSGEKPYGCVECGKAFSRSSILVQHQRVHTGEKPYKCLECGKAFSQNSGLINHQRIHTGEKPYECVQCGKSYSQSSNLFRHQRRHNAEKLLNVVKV
UniProt O95159: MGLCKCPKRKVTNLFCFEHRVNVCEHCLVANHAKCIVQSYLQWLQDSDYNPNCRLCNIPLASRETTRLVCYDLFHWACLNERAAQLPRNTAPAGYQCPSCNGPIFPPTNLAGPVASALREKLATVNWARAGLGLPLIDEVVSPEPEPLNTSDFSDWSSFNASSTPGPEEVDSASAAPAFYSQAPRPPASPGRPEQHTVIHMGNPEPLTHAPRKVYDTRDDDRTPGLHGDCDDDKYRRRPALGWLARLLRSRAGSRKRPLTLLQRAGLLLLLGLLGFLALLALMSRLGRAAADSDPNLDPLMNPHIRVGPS
UniProt Q96NC0: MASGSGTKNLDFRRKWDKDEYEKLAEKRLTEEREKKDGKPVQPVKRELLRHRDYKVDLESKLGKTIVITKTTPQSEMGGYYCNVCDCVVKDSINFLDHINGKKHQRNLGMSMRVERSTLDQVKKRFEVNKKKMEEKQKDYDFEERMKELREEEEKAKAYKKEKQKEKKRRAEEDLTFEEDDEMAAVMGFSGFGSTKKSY
UniProt Q9NQH7: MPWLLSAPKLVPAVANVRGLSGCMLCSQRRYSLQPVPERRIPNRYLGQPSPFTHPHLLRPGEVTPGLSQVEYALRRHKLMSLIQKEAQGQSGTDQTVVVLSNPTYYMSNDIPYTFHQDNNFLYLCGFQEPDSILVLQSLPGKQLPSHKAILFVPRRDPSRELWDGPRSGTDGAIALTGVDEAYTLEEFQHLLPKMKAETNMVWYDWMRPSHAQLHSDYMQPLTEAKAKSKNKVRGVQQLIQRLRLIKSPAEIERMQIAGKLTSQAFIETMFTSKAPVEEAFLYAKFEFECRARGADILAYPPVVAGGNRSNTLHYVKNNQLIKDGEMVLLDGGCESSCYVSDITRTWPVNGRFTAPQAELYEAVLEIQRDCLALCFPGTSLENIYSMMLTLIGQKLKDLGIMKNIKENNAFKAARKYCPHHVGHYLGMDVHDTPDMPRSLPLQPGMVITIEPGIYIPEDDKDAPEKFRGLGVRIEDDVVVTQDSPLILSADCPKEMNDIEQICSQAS
UniProt Q8WV99: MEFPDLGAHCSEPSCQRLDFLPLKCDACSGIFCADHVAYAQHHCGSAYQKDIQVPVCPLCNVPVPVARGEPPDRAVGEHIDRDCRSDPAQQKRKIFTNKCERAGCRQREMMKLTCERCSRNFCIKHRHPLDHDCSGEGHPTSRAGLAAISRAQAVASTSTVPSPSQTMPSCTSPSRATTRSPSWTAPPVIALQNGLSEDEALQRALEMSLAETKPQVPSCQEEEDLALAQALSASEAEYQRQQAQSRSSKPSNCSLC
UniProt P31946: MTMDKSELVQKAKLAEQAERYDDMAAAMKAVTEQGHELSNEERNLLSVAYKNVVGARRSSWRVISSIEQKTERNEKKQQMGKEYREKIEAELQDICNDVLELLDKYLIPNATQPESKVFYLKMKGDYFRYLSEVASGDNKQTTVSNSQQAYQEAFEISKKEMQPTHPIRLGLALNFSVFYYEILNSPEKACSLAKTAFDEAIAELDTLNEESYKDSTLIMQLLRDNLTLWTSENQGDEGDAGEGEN
UniProt Q7Z7L7: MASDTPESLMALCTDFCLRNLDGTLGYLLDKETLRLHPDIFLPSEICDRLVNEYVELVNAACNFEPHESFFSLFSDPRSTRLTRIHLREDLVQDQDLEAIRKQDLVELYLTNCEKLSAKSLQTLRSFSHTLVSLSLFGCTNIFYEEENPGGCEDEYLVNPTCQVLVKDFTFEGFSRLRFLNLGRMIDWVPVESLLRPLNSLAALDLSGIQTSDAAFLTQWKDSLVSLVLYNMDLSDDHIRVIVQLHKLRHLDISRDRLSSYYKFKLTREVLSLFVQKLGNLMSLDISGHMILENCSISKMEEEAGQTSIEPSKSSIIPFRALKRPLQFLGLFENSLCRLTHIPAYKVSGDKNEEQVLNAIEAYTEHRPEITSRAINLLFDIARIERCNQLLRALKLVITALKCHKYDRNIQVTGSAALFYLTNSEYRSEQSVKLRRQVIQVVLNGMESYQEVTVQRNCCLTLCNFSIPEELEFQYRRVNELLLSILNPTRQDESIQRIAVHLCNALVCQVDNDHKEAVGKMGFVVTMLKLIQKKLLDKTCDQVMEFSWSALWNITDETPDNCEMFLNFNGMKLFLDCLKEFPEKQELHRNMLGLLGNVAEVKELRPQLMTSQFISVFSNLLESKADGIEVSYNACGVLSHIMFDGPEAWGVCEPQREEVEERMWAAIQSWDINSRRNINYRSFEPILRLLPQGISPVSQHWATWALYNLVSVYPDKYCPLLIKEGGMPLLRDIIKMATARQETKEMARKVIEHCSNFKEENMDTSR
UniProt Q8IZN3: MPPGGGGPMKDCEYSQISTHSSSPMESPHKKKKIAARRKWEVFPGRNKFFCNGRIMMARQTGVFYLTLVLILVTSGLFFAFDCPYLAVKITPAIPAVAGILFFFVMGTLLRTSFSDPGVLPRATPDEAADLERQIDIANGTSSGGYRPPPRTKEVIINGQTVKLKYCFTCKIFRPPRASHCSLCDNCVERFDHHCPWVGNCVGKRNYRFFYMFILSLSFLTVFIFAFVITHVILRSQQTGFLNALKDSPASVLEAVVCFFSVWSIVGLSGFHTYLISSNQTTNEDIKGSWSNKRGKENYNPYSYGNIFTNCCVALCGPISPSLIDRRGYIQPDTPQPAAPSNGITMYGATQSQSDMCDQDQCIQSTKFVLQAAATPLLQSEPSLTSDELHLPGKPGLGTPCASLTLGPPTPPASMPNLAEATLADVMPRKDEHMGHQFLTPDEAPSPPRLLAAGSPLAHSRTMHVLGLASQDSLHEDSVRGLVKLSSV
UniProt Q86VM9: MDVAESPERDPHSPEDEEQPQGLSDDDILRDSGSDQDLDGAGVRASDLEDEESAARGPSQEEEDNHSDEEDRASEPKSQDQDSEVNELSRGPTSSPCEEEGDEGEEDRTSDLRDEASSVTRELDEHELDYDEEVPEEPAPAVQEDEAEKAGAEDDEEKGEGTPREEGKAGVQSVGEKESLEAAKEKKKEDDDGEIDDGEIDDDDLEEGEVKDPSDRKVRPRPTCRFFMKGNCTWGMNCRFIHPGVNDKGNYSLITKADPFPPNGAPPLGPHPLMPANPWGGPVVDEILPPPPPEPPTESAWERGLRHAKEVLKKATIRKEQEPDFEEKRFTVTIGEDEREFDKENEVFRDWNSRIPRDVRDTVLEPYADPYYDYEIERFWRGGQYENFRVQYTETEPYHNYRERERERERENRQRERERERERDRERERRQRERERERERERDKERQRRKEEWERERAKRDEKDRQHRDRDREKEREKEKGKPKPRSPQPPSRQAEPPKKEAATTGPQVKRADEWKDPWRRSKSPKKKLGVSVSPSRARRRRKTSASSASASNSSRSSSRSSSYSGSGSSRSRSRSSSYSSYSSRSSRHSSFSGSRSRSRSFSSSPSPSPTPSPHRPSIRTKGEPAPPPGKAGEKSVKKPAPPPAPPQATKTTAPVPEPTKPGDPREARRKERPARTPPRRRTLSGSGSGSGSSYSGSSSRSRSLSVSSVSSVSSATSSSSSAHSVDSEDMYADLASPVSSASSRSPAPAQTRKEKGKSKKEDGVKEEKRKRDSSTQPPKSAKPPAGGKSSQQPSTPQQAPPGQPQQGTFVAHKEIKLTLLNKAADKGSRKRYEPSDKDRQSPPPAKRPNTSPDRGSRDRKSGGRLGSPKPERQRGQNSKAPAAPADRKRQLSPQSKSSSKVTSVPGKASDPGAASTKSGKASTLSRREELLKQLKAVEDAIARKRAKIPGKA
UniProt Q969M3: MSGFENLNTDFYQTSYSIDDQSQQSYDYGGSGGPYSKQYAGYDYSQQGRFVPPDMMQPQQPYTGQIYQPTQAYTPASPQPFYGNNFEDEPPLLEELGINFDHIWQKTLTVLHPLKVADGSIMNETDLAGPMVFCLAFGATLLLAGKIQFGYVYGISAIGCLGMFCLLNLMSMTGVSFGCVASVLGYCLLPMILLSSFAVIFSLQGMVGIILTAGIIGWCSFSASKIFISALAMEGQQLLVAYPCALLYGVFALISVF
UniProt Q96EC8: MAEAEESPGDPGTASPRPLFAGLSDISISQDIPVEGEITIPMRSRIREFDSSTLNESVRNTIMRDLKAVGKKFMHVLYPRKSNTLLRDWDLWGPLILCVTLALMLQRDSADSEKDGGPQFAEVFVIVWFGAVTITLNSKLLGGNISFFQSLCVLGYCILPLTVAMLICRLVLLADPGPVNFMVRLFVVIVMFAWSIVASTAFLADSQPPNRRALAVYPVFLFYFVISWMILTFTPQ
UniProt P63104: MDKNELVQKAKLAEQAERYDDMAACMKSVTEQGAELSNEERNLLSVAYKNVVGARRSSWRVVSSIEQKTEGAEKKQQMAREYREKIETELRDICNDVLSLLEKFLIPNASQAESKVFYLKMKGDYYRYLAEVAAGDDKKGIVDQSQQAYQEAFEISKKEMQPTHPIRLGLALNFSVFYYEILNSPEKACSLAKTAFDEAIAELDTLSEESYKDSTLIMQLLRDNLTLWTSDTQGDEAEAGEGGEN
UniProt Q9NQW7: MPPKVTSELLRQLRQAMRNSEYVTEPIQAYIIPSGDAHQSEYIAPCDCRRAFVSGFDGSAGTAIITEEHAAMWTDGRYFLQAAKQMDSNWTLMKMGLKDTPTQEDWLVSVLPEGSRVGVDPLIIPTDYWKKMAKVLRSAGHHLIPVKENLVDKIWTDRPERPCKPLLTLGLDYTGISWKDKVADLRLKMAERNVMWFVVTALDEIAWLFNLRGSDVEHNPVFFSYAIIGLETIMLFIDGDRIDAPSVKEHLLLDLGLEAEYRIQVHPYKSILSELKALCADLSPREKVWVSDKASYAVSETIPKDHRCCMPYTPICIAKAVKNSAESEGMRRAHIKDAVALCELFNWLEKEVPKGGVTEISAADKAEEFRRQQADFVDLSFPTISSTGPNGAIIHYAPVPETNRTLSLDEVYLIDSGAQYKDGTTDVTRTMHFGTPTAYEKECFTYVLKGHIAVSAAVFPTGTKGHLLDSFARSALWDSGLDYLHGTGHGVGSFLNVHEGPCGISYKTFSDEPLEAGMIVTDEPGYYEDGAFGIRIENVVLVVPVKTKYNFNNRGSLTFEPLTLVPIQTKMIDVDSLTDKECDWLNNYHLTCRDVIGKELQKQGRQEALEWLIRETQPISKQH
UniProt Q6FIF0: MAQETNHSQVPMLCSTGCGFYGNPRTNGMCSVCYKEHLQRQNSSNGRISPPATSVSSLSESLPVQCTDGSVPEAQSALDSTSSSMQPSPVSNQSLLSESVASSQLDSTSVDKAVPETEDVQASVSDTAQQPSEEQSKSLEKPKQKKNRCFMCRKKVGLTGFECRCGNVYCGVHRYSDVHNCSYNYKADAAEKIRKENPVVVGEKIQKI
UniProt P16989, whole entry, looked up: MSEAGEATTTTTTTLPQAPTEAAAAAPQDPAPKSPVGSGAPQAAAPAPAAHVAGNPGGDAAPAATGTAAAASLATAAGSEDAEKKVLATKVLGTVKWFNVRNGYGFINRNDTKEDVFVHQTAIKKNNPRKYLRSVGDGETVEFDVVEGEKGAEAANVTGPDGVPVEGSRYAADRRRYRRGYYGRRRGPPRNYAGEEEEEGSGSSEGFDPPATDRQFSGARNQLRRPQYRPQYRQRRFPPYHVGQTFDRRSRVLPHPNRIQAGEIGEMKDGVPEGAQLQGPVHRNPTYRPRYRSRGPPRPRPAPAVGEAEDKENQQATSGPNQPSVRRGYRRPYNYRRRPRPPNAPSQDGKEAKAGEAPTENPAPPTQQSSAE

Each target was assayed with CC[C@@H]1C(=O)N(C)c2cnc(Nc3ccc(C(=O)NC4CCN(C)CC4)cc3OC)nc2N1C1CCCC1 (assay: log2 fold change, soluble protein after heating vs DMSO (PISA); higher = thermal stabilisation; K562 cells, 10 uM, 30 min; active = over 0.2 and 3.5 SD of the protein, either way, in both replicates (recomputed)).
How it was run: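 Soluble protein was defined as the supernatant after 21,000xg for 90 min. It came from K562 cells at 2×10^6 cells/mL given 10 μM compound for 30 min, heated in aliquots for 3 min across 48°C-58°C, pooled, and extracted in PBS with 0.5% NP-40 at 4°C, and was quantified by TMTpro 16plex LC-MS/MS with equalised channel sums. Thermal stability against control samples, from duplicates, is reported as log2 fold change.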

log2 fold change, inactive:
YJU2 (UniProt Q9BW85) -0.067
ZFAND5 (UniProt O76080) 0.052
ZNF24 (UniProt P17028) 0
ZFPL1 (UniProt O95159) -0.027
ZMYM3 (UniProt Q14202) 0.015
XRCC5 (UniProt P13010) -0.172
ZMAT2 (UniProt Q96NC0) 0.017
YARS (UniProt P54577) -0.04
YIPF4 (UniProt Q9BSR8) 0.022
ZFP91 (UniProt Q96JP5) 0.104
XRCC6 (UniProt P12956) -0.205
YY1 (UniProt P25490) -0.149
ZFYVE9 (UniProt O95405) -0.172
XPNPEP3 (UniProt Q9NQH7) 0.046
ZFAND2B (UniProt Q8WV99) 0.066
ZDHHC17 (UniProt Q8IUH5) -0.009
YWHAB (UniProt P31946) -0.055
XPO1 (UniProt O14980) -0.175
ZNF143 (UniProt P52747) -0.018
YBX1 (UniProt P67809) 0.262
ZER1 (UniProt Q7Z7L7) -0.032
ZDHHC14 (UniProt Q8IZN3) -0.002
YWHAQ (UniProt P27348) -0.141
YAE1 (UniProt Q9NRH1) -0.022
ZC3HC1 (UniProt Q86WB0) -0.163
ZC3H18 (UniProt Q86VM9) -0.008
YOD1 (UniProt Q5VVQ6) -0.099
YIPF5 isoform 3 (UniProt Q969M3) 0.088
YIPF6 (UniProt Q96EC8) -0.001
XPO5 (UniProt Q9HAV4) -0.122
YWHAZ (UniProt P63104) -0.083
XPO6 (UniProt Q96QU8) -0.054
YLPM1 (UniProt P49750) -0.016
ZDHHC5 (UniProt Q9C0B5) 0.035
XPNPEP1 isoform 3 (UniProt Q9NQW7) 0.027
ZNF217 (UniProt O75362) 0.029
ZFAND6 (UniProt Q6FIF0) 0.058
ZC3H8 (UniProt Q8N5P1) 0.181
YBX3 isoform 2 (UniProt P16989) 0.371

Random excerpt: 2 records from the list
log2 fold change, inactive:
YIPF4 (UniProt Q9BSR8) 0.022
YLPM1 (UniProt P49750) -0.016
